The values that follow come from paper PMC12218103.

For this test, the target named is T1, Emerald-tagged ERGIC53 (UniProt P49257).
T1 sequence: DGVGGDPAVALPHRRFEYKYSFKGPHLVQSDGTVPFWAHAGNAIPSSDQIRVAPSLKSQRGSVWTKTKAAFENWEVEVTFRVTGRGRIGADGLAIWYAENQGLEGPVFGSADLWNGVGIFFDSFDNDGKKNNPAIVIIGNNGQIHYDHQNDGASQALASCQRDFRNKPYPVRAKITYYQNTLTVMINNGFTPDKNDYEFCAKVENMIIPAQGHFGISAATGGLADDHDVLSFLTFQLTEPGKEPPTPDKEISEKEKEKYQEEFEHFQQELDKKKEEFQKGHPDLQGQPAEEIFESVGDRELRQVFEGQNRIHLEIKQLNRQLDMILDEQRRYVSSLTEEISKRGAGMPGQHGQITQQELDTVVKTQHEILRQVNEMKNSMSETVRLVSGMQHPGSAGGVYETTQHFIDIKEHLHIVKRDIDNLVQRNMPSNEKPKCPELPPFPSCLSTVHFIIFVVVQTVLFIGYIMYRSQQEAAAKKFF
The experiment in a line: co-IP; Emerald-ERGIC53 expressed in HEK293FT cells; lysis in 0.5% NP40 buffer; lysate diluted in 10 mM Tris, 150 mM NaCl, 0.5 mM EDTA and incubated with GFP-trap agarose beads 1 h at 4 °C; endogenous TUG sought in the immunoprecipitates.

These are yes or no findings as the source states them, for the method shown. Binding seen in cells or lysates may run through a third protein. Where a sequence is shown, tags or fusion partners need not be part of it.

B1: TUG protein (Tether, containing a UBX domain, for GLUT4), endogenous in HEK293FT cells (protein, UniProt Q9BZE9 1-553)
chain: MAAPAGGGGSAVSVLAPNGRRHTVKVTPSTVLLQVLEDTCRRQDFNPCEYDLKFQRSVLDLSLQWRFANLPNNAKLEMVPASRSREGPENMVRIALQLDDGSRLQDSFCSGQTLWELLSHFPQIRECLQHPGGATPVCVYTRDEVTGEAALRGTTLQSLGLTGGSATIRFVMKCYDPVGKTPGSLGSSASAGQAAASAPLPLESGELSRGDLSRPEDADTSGPCCEHTQEKQSTRAPAAAPFVPFSGGGQRLGGPPGPTRPLTSSSAKLPKSLSSPGGPSKPKKSKSGQDPQQEQEQERERDPQQEQERERPVDREPVDREPVVCHPDLEERLQAWPAELPDEFFELTVDDVRRRLAQLKSERKRLEEAPLVTKAFREAQIKEKLERYPKVALRVLFPDRYVLQGFFRPSETVGDLRDFVRSHLGNPELSFYLFITPPKTVLDDHTQTLFQANLFPAALVHLGAEEPAGVYLEPGLLEHAISPSAADVLVARYMSRAAGSPSPLPAPDPAPKSEPAAEEGALVPPEPIPGTAQPVKRSLGKVPKWLKLPASKR
For the molecule B1, the binding result is “no binding”.
